Values quoted from earlier work as cited in US8642633B2, “Di-substituted amides for enhancing glutamatergic synaptic responses” (Cortex Pharmaceutical, Inc., priority 2007, dated 2014).
At least one compound was matched to its structure with a doubt left.

Tested on: AMPA receptor
Conditions: works only at high concentrations; cited from earlier work

COc1ccc(C(=O)N2CCCC2=O)cc1 [aniracetam, N-anisoyl-2-pyrrolidinone]
concentration at which the drug works: approx. 1000 μM
